Measurements: PubChem BioAssay AID1347076 (National Center for Advancing Translational Sciences (NCATS), 2019)
Among all 400,000 compounds or so, about 13,000 (3.2%) were called active. Inconclusive results, whose numbers are uncertain, are shown with a selection of clear calls. Calls follow the shape of the dose curve; as a rule, active = well fitted cell-killing curve with a large enough effect; inconclusive = small, poorly fitted or top-dose-only effect, or effect the other way; inactive = flat fitted curve, though single readings scatter. Potencies beside an inconclusive call are fits to weak or partial responses and may not hold up.

Test: qHTS assay for MDR1-selective chemotherapeutics: Primary screen using the drug-selected MDR subline cells KB-V1; also: nearly all actives have a fitted effect of over 60% in size
Settings: KB-V1 MDR cells viability, CellTiter-Glo, 72 h; series mostly up to 46.1 µM
In short: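 Compound-treated KB-V1 multidrug-resistant cells, 72 h, 37 degrees C; viability by CellTiter-Glo. Fitted qHTS curves give the values.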
Potency is read from the fitted curve at half-maximal effect.

| SMILES | Potency |
| --- | --- |
| COc1ccc(-c2csc(NC(=O)C(CC(=O)O)N3CCOCC3)n2)cc1 (stereo unspecified) | inconclusive: 14.6 µM [rising, partial curve] |
| O=C(CCn1c(=O)oc2cc(Cl)ccc21)Nc1ccc(N2CCOCC2)cc1 | inconclusive: 23.1 µM [cytotoxic, single point] |
| COc1ccc(-c2nn3c(C4CCCCC4)nnc3s2)cc1OC | inconclusive: 6.51 µM [cytotoxic, partial curve] |
| Cc1ccccc1N1C(=O)C(Cc2ccc(F)cc2)S/C1=C(\C#N)C(N)=O (stereo unspecified) | inconclusive: 20.6 µM [cytotoxic, single point] |
| O=c1[nH]c(C2CC2)nc2sc3c(c12)CCCC3 | inconclusive: 18.4 µM [cytotoxic, single point] |
| COc1ccc(OC)c(CNC(=O)CCN2C(=O)COc3ccccc32)c1 | inconclusive: 16.4 µM [cytotoxic, single point] |
| COc1ccccc1NS(=O)(=O)c1ccc(C)c(C(=O)N2CCCC2)c1 | inconclusive: 3.66 µM [cytotoxic, full curve] |
| CSc1ccc(OC2CCCCC2NS(=O)(=O)c2ccc(Cl)cc2)cc1 (stereo unspecified) | inconclusive: 18.4 µM [cytotoxic, single point] |
| O=C1NC(=O)C2(CCCCCC2)N1 | inconclusive: 10.3 µM [rising, partial curve, poor fit] |
| O=C(NCCc1cccs1)C1CC(c2ccccc2[N+](=O)[O-])=NO1 (stereo unspecified) | inconclusive: 16.4 µM [rising, single point] |
| CC(NC(=O)c1ccccc1NC(=O)CSc1nnnn1C)c1ccccc1 (stereo unspecified) | inconclusive: 14.6 µM [cytotoxic, single point] |
| O=C(O)c1cc(/C=C/c2ccc(N3CCOCC3)c([N+](=O)[O-])c2)nc2ccccc12 | inactive |
| CC(C)c1ccc(NC(=O)C2CCN(C(=O)c3ccc(F)cc3)CC2)cc1 | inconclusive: 20.6 µM [cytotoxic, partial curve, poor fit] |
| CC(=O)Nc1ccc2nc(CN3CCN(Cc4ccc(F)cc4)C(CCO)C3)ccc2c1 (stereo unspecified) | inconclusive: 29.1 µM [rising, single point] |
| O=C(c1cc2nc(-c3ccccc3)cc(-c3ccccc3)n2n1)N1CCN(C(=O)c2ccco2)CC1 | active: 20.6 µM |
| COc1ccc(N(CC(=O)NCC2CCCO2)C(=O)CCC(=O)Nc2nccs2)cc1 (stereo unspecified) | inconclusive: 23.1 µM [rising, single point] |
| O=C(Nn1c(SCc2cccc([N+](=O)[O-])c2)nc2ccccc2c1=O)c1ccccc1 | inconclusive: 9.2 µM [cytotoxic, partial curve] |
| CC(C)CC1C(=O)N(Cc2cn(Cc3ccco3)nn2)CCS(=O)(=O)N1Cc1ccc(-c2ccccc2)cc1 (stereo unspecified) | inconclusive: 29.1 µM [cytotoxic, single point] |
| COc1cccc(C(=O)Nc2cccc(-c3ccc4nncn4n3)c2)c1OC | inconclusive: 29.1 µM [cytotoxic, single point] |
| CCc1ccc(N2CC(C(=O)Nc3ccc(S(=O)(=O)N4CCCCC4)cc3)CC2=O)cc1 (stereo unspecified) | inconclusive: 0.0092 µM [rising, full curve] |
| Cc1ccc(C(=O)NNC(=O)CCC(=O)NCc2ccccc2)cc1Br | inconclusive: 11.6 µM [rising, partial curve] |

| SMILES | Potency |
| --- | --- |
| Cn1c(=O)c(C(=O)c2ccccc2)c(O)c2ccccc21 | inconclusive: 2.31 µM [rising, full curve, poor fit] |
| COc1ccc(OCC(=O)N2N=C(C)CC2(O)C(F)(F)F)cc1 (stereo unspecified) | inactive |
| CCOC(=O)CSc1nc2ccccc2c(=O)n1CCC(=O)NCCc1ccc(OC)c(OC)c1 | inconclusive: 2.06 µM [cytotoxic, partial curve, poor fit] |
| CC(C)c1ccc(NC(=O)C2CCCCC2C(=O)O)cc1 (stereo unspecified) | inconclusive: 18.4 µM [cytotoxic, single point] |
| Cc1nn(-c2ccccc2)c2sc(C(=O)N(CC(=O)NC(C)(C)C)Cc3ccco3)cc12 | inconclusive: 6.51 µM [cytotoxic, partial curve, poor fit] |
| O=C1CC(C(=O)N2CCc3ccccc32)CN1c1cccc(C(F)(F)F)c1 (stereo unspecified) | inconclusive: 10.3 µM [cytotoxic, partial curve, poor fit] |
| COc1ccccc1NC(=O)CSc1c2c(nc3ccccc13)CCC2 | inconclusive: 23.1 µM [cytotoxic, partial curve, poor fit] |
| CCOC(=O)c1c(NC(=O)CN2CCN(C(=O)C3CCCO3)CC2)sc(C)c1C (stereo unspecified) | inconclusive: 29.1 µM [cytotoxic, single point] |
| O=c1c2c3nc4ccccc4nc3n(-c3ccc4c(c3)OCCO4)c2ncn1C1CCCC1 | inconclusive: 29.1 µM [cytotoxic, single point] |
| O=C(C(Cc1ccccc1)n1cccc1)N1CCN(c2cccc(Cl)c2)CC1 (stereo unspecified) | inconclusive: 18.4 µM [cytotoxic, single point] |
| COc1cccc(C(=O)NNC(=O)C(=O)Nc2cccc3ccccc23)c1 | inactive |
| O=C(c1cccc(S(=O)(=O)Nc2ccccc2Cl)c1)N1CCN(C(=O)c2ccco2)CC1 | inactive |
| CC(CCc1ccccc1)NCC#N (stereo unspecified) | inactive |
| O=C(COc1ccc(Cl)cc1Cl)NCC1(N2CCOCC2)CCCCC1 | inconclusive: 0.0046 µM [cytotoxic, full curve, poor fit] |
| Cc1cccc(C(=O)OCC(=O)N2CCCCCC2)c1 | inconclusive: 23.1 µM [cytotoxic, single point] |
| O=c1cc(-c2ccc(O)cc2)oc2cc(O)cc(O)c12 | inconclusive: 29.1 µM [cytotoxic, single point] |
| O=C(CN1CCCC1)NC(c1ccccc1)c1ccccc1 | inactive |
| C/C(=N\NC(=O)c1nnn(-c2nonc2N)c1CSc1ccc(C)cc1)c1cccnc1 | inactive |
| Cc1ccc(NC2=C/C(=N\S(=O)(=O)c3cccs3)c3ccccc3C2=O)c(C)c1 | active: 5.17 µM |
| COc1ccc(CCNC(=O)Nc2nnc([C@@H]3C[C@H](O)[C@@H](CO)O3)s2)cc1OC | inconclusive: 20.6 µM [rising, partial curve, poor fit] |

Molecules shown so far with a cyano group (two):

| SMILES | Potency |
| --- | --- |
| Cc1ccccc1N1C(=O)C(Cc2ccc(F)cc2)S/C1=C(\C#N)C(N)=O (stereo unspecified) | inconclusive: 20.6 µM [cytotoxic, single point] |
| CC(CCc1ccccc1)NCC#N (stereo unspecified) | inactive |
